According to the supplement of paper PMC12067093, “Discovery and optimisation of a covalent ligand for TRIM25 and its application to targeted protein ubiquitination” (Chemical Science, 2025):
The list shows a part of the results.

By UniProt entry, the sequences of proteins in these tests, tags left out. Where a name states a change or a piece, a line headed by the entry shows the natural chain unless it says otherwise.
UniProt Q13315: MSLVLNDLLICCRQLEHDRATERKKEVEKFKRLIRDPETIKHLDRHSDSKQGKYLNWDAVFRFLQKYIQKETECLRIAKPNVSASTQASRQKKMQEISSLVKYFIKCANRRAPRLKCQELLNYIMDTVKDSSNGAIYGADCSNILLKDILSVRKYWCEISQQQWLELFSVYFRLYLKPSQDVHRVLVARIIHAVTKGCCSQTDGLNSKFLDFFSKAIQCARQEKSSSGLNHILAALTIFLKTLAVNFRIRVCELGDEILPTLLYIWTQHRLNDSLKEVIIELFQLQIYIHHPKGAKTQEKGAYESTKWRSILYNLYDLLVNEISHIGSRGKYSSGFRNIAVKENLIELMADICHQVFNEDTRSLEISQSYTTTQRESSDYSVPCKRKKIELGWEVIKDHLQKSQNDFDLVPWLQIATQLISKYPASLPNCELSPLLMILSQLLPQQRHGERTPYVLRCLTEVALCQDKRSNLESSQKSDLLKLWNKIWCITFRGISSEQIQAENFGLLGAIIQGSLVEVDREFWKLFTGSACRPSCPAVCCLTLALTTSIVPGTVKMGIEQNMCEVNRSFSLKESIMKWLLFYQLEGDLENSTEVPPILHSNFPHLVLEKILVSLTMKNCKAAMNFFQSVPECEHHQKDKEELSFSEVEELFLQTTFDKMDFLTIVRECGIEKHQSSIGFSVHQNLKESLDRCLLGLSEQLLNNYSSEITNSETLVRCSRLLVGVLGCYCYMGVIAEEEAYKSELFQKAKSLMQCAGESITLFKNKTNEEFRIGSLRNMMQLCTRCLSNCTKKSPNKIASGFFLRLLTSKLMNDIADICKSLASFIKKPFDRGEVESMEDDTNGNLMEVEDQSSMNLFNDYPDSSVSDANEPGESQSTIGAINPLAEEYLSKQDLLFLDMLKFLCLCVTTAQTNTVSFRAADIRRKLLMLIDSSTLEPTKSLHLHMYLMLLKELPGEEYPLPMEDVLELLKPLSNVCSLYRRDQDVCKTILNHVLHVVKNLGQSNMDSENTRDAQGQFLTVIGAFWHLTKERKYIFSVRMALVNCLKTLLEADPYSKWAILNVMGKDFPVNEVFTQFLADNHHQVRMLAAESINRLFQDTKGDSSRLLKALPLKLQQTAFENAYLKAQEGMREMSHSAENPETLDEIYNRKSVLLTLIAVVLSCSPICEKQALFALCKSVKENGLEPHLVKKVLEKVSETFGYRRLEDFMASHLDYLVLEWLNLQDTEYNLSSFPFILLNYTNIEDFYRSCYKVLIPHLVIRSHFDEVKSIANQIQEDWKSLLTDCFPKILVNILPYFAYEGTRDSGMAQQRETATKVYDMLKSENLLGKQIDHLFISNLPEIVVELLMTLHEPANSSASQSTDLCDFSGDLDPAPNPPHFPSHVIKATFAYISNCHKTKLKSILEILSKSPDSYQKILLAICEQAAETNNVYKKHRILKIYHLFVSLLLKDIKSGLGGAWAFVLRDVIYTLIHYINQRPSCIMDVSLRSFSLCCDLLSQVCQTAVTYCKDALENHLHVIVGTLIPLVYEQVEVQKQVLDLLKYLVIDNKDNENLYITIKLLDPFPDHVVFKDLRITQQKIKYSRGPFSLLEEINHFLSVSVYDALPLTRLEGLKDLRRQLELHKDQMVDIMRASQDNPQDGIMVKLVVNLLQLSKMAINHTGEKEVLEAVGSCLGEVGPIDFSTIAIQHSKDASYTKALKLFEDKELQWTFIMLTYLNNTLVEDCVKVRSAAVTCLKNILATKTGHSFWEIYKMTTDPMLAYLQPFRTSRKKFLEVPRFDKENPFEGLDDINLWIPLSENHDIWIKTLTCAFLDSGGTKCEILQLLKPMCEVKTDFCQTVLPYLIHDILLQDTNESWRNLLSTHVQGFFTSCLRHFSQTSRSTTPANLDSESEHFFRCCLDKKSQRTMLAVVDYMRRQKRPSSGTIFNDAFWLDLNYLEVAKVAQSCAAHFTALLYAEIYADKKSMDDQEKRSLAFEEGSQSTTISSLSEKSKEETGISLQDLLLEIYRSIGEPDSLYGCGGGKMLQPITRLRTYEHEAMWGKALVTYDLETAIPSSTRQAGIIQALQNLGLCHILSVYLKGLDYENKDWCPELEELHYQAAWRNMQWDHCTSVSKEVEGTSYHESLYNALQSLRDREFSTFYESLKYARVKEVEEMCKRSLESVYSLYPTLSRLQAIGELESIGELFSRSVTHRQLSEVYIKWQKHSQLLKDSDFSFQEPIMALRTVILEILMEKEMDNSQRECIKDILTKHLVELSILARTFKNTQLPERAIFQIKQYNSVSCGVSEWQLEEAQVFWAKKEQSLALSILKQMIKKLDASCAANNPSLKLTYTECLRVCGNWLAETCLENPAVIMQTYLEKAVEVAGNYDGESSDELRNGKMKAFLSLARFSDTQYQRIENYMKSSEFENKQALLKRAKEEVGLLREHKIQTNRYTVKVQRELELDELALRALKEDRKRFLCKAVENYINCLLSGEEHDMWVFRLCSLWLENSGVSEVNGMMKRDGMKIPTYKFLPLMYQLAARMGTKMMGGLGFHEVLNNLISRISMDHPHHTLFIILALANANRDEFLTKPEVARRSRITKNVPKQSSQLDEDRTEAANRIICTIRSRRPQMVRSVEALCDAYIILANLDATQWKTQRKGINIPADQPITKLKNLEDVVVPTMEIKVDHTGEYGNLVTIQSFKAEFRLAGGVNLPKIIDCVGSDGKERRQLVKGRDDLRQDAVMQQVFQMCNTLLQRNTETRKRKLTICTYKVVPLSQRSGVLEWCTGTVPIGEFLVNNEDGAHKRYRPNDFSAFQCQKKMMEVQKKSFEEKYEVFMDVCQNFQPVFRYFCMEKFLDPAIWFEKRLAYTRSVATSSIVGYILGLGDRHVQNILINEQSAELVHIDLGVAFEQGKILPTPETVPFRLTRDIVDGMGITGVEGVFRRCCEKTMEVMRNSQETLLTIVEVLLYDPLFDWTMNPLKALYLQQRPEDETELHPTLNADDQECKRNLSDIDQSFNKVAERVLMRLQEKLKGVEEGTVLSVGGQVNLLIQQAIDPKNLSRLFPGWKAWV
UniProt Q12797: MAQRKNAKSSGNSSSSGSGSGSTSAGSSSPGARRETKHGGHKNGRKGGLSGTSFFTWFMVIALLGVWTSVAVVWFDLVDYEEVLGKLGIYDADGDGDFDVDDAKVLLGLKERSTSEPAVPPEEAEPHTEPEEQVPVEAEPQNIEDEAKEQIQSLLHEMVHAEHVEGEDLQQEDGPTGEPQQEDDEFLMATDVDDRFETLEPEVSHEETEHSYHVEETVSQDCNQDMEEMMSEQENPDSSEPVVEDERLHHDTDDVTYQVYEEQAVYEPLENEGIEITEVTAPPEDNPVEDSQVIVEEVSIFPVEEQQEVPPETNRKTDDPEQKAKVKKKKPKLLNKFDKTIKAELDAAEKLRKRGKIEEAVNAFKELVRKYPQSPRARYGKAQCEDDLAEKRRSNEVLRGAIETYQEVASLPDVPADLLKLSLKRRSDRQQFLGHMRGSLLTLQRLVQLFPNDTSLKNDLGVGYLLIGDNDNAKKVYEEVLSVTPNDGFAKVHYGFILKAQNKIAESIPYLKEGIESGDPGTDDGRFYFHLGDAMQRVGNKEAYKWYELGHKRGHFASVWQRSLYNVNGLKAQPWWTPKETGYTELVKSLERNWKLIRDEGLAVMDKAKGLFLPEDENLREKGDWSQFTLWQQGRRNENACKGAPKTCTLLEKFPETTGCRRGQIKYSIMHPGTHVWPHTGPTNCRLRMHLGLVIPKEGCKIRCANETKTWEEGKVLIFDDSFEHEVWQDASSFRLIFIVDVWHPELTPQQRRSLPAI
UniProt O00244: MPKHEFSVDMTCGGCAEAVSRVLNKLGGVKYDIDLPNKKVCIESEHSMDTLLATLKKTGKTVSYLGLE
UniProt P20020: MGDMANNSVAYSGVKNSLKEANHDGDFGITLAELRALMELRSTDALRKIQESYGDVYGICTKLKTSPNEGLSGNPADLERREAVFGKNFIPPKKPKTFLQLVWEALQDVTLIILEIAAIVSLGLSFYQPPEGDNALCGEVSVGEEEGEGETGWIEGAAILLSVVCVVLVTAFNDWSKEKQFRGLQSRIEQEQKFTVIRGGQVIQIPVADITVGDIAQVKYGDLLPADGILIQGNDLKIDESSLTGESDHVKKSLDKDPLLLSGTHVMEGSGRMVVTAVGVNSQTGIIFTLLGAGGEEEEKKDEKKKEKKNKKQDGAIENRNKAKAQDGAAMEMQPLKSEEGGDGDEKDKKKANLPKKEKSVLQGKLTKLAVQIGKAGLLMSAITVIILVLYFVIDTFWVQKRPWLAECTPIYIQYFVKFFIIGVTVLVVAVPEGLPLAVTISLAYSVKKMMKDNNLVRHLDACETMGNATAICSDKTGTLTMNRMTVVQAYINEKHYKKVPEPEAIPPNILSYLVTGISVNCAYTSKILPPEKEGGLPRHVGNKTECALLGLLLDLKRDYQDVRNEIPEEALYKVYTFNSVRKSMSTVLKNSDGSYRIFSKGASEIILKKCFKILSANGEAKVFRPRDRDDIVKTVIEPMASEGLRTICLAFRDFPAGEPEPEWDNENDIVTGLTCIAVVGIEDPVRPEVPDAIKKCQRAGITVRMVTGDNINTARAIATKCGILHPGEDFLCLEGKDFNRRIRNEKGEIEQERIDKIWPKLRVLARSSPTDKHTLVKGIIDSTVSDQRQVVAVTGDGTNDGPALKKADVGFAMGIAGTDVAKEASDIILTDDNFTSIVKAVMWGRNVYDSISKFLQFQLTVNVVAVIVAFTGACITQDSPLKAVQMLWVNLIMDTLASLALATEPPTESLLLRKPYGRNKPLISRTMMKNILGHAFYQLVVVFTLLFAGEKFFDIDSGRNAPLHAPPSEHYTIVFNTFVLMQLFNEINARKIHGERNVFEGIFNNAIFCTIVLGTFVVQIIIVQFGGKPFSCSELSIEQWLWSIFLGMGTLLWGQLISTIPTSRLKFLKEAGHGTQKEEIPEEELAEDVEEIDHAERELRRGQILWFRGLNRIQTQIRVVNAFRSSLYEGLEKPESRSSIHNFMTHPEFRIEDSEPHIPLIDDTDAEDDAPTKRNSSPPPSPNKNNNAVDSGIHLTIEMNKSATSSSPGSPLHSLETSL
UniProt Q9ULH1: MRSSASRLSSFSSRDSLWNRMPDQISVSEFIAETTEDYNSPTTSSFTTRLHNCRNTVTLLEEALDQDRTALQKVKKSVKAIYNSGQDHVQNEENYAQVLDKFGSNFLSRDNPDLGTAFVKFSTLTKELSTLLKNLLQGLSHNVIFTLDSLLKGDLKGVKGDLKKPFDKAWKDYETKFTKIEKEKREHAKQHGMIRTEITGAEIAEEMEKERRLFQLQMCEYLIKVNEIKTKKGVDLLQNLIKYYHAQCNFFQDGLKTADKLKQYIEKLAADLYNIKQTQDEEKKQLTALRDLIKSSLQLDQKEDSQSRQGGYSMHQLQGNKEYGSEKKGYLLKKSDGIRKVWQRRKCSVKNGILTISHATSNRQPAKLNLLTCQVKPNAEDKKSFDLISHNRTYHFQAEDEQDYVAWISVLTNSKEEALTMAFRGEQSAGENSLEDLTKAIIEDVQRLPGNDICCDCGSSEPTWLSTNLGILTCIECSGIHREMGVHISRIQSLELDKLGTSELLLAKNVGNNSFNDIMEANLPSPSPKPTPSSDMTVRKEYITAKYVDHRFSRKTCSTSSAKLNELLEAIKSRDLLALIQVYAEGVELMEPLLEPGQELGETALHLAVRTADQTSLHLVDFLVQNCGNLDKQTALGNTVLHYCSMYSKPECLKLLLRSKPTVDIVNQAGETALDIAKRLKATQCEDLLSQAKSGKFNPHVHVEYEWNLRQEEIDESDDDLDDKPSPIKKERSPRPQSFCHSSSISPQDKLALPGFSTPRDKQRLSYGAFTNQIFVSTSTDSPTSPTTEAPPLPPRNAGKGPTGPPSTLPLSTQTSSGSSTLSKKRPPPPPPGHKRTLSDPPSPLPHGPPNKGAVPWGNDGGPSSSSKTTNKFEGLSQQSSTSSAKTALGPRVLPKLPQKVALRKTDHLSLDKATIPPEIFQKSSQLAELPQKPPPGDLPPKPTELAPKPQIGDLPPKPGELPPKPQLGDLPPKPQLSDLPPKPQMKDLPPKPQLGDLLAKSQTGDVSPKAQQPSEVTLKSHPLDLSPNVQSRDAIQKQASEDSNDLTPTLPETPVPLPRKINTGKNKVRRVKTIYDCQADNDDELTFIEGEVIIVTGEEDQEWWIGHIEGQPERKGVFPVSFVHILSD
UniProt Q9NT62, whole entry, looked up: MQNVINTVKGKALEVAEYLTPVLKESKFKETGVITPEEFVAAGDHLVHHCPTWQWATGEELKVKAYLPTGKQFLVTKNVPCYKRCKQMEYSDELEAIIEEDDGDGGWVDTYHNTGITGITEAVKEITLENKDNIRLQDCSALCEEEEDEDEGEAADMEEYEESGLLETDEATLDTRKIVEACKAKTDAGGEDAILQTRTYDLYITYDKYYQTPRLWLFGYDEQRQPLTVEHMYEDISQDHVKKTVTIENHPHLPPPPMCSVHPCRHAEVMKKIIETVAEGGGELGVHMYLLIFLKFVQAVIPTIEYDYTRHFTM

Compound: Cc1cc(ccc1-c1ccccc1)C(=O)N1CCCN(CC1)C(=O)CCl [compound 10]
Assay: probe-labelled cysteine peptide fold change vs DMSO (competition) (log2 fold change); higher = less target engagement (more negative = stronger competition)
Conditions: THP-1, incubation time: 4 h
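Note: competitive profiling in live THP-1 cells: cysteine peptides tagged with an iodoacetamide desthiobiotin (IA-DTB) probe, intensity after compound treatment relative to DMSO-treated cells.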

| Target | probe-labelled cysteine peptide fold change (10 µM) | probe-labelled cysteine peptide fold change (50 µM) |
| --- | --- | --- |
| ATN1_P54259_851_APVECPSLGPVPHRPPFEPGSAVATVPPYLGPDTPALR (UniProt P54259) | -0.143 | -0.422 |
| ATF7IP_Q6VMQ6_1228_ALPLPMACTLTQFVSGSK (UniProt Q6VMQ6) | 0.114 | 0.118 |
| ATM_Q13315_2473_AVENYINCLLSGEEHDMWVFR (UniProt Q13315) | 0.0427 | 0.26 |
| ASPH_Q12797_685_YSIMHPGTHVWPHTGPTNCR (UniProt Q12797) | -0.223 | -0.291 |
| ATRX_P46100_1760_IILTGTPLQNNLIEYHCMVNFIK (UniProt P46100) | -0.047 | 0.0522 |
| ASCC3_Q8N3C0_1343_AYEALYNFSHFNPVQTQIFHTLYHTDCNVLLGAPTGSGK (UniProt Q8N3C0) | 0.133 | 0.319 |
| ATP2C1_P98194_162_DLVPGDTVCLSVGDRVPADLR (UniProt P98194) | -0.125 | -0.322 |
| ATXN10_Q9UBB4_165_NEDSQSIVWVHAFPELFLSCLNHPDK (UniProt Q9UBB4) | 0.282 | 0.343 |
| ATP13A3_Q9H7F0_545_SQFVACMATCHSLTK (UniProt Q9H7F0) | 0.0462 | -0.178 |
| ATOX1_O00244_41_KVCIESEHSMDTLLATLKK (UniProt O00244) | 0.623 | -0.15 |
| ATP2B1_P20020_547_TECALLGLLLDLKR (UniProt P20020) | -0.138 | -0.507 |
| ATOX1_O00244_41_VCIESEHSMDTLLATLKK (UniProt O00244) | 0.237 | -0.215 |
| ATG7_O95352_235_ITIGVYDPCNLAQYPGWPLR (UniProt O95352) | -0.184 | 0.104 |
| ATP6V1A_P38606_138_WDFTPCK (UniProt P38606) | -1.09 | -3.27 |
| ATG16L1_Q676U5_506_TELLSCSR (UniProt Q676U5) | -0.134 | 0.219 |
| ATP13A1_Q9HD20_336_SPQENLVPCDVLLLR (UniProt Q9HD20) | 0.172 | 0.0583 |
| ATP1A1_P05023_464_CIELCCGSVK (UniProt P05023) | 0.0291 | -0.539 |
| ASAP1_Q9ULH1_652_QTALGNTVLHYCSMYSKPECLK (UniProt Q9ULH1) | 0.0891 | -0.0357 |

Look-ups from the results shown.
Value for ATP1A1_P05023_464_CIELCCGSVK (UniProt P05023) under probe-labelled cysteine peptide fold change (10 µM): 0.0291
Value for ATP2B1_P20020_547_TECALLGLLLDLKR (UniProt P20020) under probe-labelled cysteine peptide fold change (10 µM): -0.138
Value for ATM_Q13315_2473_AVENYINCLLSGEEHDMWVFR (UniProt Q13315) under probe-labelled cysteine peptide fold change (50 µM): 0.26

(list continues)

| Target | probe-labelled cysteine peptide fold change (10 µM) | probe-labelled cysteine peptide fold change (50 µM) |
| --- | --- | --- |
| ATP5S_Q99766_134_CHYIEDDCLLR (UniProt Q99766) | 0.0401 | 0.00322 |
| ASB3_Q9Y575_295_VSPVYSAVFGGHEDCLEILLR (UniProt Q9Y575) | 0.0716 | -0.785 |
| ATP13A1_Q9HD20_18_AAAAAVGNAVPCGARPCGVRPDGQPKPGPQPR (UniProt Q9HD20) | -0.246 | -0.624 |
| ATP6V1H_Q9UI12_73_QEMLQTEGSQCAK (UniProt Q9UI12) | -0.0481 | -0.0995 |
| ATG7_O95352_524_QQGAGDLCPNHPVASADLLGSSLFANIPGYK (UniProt O95352) | -0.121 | -0.282 |
| ATRX_P46100_1026_MEQQYESSSDGTEKLPEREEICHFPK (UniProt P46100) | -0.0121 | -0.627 |
| ATG3_Q9NT62_264_TVTIENHPHLPPPPMCSVHPCR (UniProt Q9NT62) | 0.234 | 0.197 |
| ASMTL_O95671_274_AEAGEAGQATAEAECHR (UniProt O95671) | -0.203 | -0.275 |
| ATPAF1_Q5TC12_321_CAQNQNKT (UniProt Q5TC12) | -0.363 | -0.907 |
| ATG2A_Q2TAZ0_698+715_SELSSGPGPPVPTHLELTCSDLHGIYEDGGKPPVPCLR (UniProt Q2TAZ0) | -0.184 | -0.0101 |
| ATG9A_Q7Z3C6_331_CWSLYGR (UniProt Q7Z3C6) | -0.152 | -0.424 |
| ATP6V0A1_Q93050_247_ASLYPCPETPQER (UniProt Q93050) | -0.135 | 0.217 |
| ATIC_P31939_101_VVACNLYPFVK (UniProt P31939) | 0.119 | 0.0511 |
| ATL3_Q6DD88_256+262_NHIHSCFSDVTCFLLPHPGLQVATSPDFDGK (UniProt Q6DD88) | 0.137 | -0.0197 |
| ASXL2_Q76L83_299_HTFSVLPGDCQQR (UniProt Q76L83) | -0.0705 | -0.476 |
| ASPH_Q12797_384_AQCEDDLAEK (UniProt Q12797) | 0.169 | 0.0426 |
| ATP2A2_P16615_447_VGEATETALTCLVEK (UniProt P16615) | 0.0742 | 0.0403 |
| ASAP1_Q9ULH1_627_TADQTSLHLVDFLVQNCGNLDK (UniProt Q9ULH1) | -0.0155 | -0.0181 |
